Reference: patent publication KR20200132110A
These are yes or no findings as the source states them, for the method shown. Some binding calls cover weakened binding; strength is not graded here.

Chains of the proteins cited; added tags and fusions are not shown. Residues count along the entry.
UniProt P16070, residues 21-742: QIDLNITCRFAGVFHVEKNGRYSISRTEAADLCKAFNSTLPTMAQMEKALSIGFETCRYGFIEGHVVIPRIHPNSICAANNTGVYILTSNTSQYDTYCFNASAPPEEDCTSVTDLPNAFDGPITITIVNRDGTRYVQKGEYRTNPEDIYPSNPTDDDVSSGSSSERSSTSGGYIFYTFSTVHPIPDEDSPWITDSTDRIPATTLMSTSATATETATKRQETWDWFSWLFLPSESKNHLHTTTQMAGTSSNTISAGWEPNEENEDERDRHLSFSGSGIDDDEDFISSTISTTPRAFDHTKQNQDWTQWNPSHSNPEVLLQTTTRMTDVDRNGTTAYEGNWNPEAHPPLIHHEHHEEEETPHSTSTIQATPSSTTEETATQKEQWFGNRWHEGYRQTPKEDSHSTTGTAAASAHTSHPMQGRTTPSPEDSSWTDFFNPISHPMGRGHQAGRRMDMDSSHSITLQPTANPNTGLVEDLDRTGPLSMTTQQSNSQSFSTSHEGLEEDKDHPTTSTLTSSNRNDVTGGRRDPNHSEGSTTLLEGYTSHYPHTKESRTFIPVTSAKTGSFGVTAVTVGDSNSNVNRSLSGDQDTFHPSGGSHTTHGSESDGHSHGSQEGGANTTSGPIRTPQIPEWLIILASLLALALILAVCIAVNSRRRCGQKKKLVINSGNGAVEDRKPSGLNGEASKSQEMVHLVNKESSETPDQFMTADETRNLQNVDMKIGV

What was measured:
[1] = molecular target: CD71 단백질(Pro1), 재조합 단백질 (UniProt P02786); assay: ELISA, 100 nM coated recombinant protein, antibody 1 μg/mL
[2] = molecular target: CD71 단백질(Pro1), 재조합 단백질 (UniProt P02786); assay: ELISA on coated recombinant protein
[3] = molecular target: CD44 (암 줄기세포막 타겟 항원, on cells) (UniProt P16070); assay: flow cytometry on a cancer stem cell line and breast cancer cell lines
[4] = molecular target: CD44 (암 줄기세포막 타겟 항원, on cells) (UniProt P16070); assay: in situ IP with LC-MS/MS; binding to CD44+ cells against CD44 gene knockout cells, compared with a commercial CD44 antibody
[5] = molecular target: CD44 (암 줄기세포막 타겟 항원, on cells) (UniProt P16070); assay: flow cytometry on NCI-87 gastric cancer cells

Row | Binder | binding [1] | binding [2] | binding [3] | binding [4] | binding [5]
1 | 1E12 항체 (antibody, V domains shown) VH: QMQLVQSGAEVKKPGASVKVSCKASGYIFTDYYMHWVRQAPGQGLEWMGGISPIFGTANYAQNFQGRVTITADESTTTAYMELSNLRSEDTAVYYCAKDGAGPEYYYYGLDVWGQGTSVTVSS VL: QSALTQPPSVSGSPGQSVTISCTGTSSDIGGYNYVSWYQHHPGKAPKLVISEVTKRPSGVPGRFSGSKSGNTASLTVSGLQAEDEADYYCSSYSDSDNLLFGGGTKLTVLG | binds | binds |  |  | 
2 | 3C7 항체 (antibody, V domains shown) VH: QVQLVQSGGGLVQPGRSLRLSCAASGFTFGDYGMHWVRQAPGRGLEWVSGISWNSDTIGLADSVKGRFTVSRDNAKNSLYLQMNSLRAEDTAVYYCARPAFISGWYPGFFDIWGQGTMVTVSS VL: QSALTQPASVSGSPGQSITISCSGTTRDVGRYDYVSWYRQYPGEAPQLLIYDVSKRPSGVSNRFFDSKSGNTASLTISGLQADDEADYYCCSYAGNSTYVFGTGTKVTVLG |  |  | binds | binds | binds
